Data: the supplement of paper PMC12823440, “Inhibitors supercharge kinase turnover through native proteolytic circuits” (Nature, 2025)
Some of the results follow. Hit calls seldom repeat between salt and free forms of one compound.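 Kinases were expressed as nanoluciferase fusions in K562 cells and luminescence was read every 4 h between 2 and 18 h as percent of control, DMSO set to 100% and a positive control to 0%. A time point counts as decreased when the signal drops significantly (2 sigma). The hit call is the authors' own, does not follow from the count of time points alone, and its rule is not shown.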

Sequences of proteins named here, by UniProt entry; tags and fusion partners are left off. A change or cut given only in a name is not applied to a line headed by its entry.
UniProt P43403: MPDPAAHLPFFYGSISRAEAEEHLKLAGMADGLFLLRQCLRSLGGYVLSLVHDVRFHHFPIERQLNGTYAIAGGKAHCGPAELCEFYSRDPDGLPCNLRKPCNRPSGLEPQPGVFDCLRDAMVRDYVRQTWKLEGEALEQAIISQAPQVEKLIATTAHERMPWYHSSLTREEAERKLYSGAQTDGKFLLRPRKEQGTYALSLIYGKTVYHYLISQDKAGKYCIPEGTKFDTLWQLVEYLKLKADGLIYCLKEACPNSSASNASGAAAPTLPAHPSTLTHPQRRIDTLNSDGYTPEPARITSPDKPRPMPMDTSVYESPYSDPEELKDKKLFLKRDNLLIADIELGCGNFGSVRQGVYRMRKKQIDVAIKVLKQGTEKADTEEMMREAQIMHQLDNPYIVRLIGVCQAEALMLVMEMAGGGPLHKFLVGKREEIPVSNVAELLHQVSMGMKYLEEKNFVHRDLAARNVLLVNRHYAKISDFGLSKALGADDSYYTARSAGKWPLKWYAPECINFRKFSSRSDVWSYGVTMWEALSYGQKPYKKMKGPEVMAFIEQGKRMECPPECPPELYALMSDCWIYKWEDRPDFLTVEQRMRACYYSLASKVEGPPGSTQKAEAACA
UniProt P29317, whole entry: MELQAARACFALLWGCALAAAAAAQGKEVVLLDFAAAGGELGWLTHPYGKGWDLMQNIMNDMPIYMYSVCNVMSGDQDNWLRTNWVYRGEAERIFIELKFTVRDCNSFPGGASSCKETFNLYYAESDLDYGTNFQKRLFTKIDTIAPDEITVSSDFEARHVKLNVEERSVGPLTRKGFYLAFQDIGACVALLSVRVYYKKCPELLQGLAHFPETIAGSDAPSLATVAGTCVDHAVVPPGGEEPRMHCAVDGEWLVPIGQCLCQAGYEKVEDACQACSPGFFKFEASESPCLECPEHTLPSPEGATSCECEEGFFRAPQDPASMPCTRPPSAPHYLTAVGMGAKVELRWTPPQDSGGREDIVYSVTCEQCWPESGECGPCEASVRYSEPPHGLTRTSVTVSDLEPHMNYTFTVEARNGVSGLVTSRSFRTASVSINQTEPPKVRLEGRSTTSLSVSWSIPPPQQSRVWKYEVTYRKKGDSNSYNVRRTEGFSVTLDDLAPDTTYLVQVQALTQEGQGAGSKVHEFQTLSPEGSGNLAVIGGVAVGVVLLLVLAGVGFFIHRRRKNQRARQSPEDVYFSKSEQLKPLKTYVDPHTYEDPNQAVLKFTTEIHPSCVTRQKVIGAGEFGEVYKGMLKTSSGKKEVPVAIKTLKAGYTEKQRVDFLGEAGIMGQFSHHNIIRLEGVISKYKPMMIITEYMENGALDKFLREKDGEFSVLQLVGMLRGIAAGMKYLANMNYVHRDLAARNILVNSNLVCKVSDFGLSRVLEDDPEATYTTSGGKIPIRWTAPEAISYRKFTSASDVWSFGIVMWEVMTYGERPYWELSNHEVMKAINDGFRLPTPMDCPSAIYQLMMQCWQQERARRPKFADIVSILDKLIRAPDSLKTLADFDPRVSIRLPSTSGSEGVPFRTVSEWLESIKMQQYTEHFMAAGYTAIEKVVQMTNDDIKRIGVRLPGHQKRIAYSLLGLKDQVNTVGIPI
UniProt Q92630: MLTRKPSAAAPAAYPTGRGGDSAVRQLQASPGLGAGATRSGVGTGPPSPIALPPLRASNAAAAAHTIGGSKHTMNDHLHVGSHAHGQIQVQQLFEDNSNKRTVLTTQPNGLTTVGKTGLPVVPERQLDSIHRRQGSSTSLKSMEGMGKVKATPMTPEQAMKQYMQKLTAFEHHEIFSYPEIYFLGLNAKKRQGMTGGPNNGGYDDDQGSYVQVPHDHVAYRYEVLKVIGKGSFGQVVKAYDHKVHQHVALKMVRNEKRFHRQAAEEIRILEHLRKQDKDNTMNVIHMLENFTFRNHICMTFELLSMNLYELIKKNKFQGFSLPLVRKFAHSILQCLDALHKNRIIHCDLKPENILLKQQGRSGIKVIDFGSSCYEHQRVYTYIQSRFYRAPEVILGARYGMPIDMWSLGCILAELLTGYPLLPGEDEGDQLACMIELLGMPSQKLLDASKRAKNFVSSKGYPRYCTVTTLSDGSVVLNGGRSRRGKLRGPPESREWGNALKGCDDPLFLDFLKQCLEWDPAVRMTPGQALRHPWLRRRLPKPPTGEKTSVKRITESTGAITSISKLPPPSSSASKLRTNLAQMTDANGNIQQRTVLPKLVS
UniProt Q13131: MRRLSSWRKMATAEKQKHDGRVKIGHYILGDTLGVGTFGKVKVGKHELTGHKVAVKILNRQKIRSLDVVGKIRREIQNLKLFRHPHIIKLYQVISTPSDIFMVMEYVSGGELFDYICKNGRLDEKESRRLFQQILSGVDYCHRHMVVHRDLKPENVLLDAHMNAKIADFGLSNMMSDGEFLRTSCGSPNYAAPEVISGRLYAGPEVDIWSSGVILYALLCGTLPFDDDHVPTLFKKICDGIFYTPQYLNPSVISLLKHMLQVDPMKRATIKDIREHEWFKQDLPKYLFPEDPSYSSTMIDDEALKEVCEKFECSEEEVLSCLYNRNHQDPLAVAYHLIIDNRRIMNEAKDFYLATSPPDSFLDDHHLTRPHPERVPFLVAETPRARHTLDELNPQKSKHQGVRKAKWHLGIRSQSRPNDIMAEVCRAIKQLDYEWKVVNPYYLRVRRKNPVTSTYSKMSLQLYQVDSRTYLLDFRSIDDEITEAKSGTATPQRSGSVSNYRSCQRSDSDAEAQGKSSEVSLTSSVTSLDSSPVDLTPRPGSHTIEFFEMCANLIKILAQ
UniProt P14616: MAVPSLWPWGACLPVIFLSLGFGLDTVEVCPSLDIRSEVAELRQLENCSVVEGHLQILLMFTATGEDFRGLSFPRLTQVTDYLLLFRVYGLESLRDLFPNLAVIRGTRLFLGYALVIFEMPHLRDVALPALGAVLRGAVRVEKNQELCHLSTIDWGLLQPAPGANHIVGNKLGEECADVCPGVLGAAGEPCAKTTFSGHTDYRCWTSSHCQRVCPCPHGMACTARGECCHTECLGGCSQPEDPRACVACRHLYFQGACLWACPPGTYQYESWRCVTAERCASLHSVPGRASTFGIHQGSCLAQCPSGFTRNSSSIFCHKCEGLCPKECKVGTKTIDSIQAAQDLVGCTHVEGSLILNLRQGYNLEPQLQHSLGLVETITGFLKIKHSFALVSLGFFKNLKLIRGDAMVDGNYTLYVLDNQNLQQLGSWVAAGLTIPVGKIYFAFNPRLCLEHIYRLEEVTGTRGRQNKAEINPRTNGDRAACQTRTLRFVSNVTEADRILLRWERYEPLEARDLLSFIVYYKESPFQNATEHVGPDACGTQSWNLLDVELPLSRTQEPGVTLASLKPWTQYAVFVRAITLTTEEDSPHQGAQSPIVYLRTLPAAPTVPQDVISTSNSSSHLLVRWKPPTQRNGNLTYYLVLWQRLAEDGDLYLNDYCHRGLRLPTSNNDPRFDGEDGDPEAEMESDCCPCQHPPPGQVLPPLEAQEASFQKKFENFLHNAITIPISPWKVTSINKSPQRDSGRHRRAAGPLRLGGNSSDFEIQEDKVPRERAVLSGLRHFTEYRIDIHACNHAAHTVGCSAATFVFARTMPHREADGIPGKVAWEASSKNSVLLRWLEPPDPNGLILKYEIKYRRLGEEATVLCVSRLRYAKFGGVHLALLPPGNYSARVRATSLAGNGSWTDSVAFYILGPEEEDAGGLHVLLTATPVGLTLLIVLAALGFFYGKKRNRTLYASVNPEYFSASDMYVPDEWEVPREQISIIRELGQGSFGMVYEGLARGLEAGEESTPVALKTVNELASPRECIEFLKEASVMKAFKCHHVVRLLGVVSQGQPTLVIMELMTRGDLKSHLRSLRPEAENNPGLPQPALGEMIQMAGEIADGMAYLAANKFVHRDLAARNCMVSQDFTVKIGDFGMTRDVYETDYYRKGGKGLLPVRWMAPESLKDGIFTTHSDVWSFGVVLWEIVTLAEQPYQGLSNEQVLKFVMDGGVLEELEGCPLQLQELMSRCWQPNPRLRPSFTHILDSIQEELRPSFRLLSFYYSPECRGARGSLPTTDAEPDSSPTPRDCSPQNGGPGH
UniProt Q9UBF8: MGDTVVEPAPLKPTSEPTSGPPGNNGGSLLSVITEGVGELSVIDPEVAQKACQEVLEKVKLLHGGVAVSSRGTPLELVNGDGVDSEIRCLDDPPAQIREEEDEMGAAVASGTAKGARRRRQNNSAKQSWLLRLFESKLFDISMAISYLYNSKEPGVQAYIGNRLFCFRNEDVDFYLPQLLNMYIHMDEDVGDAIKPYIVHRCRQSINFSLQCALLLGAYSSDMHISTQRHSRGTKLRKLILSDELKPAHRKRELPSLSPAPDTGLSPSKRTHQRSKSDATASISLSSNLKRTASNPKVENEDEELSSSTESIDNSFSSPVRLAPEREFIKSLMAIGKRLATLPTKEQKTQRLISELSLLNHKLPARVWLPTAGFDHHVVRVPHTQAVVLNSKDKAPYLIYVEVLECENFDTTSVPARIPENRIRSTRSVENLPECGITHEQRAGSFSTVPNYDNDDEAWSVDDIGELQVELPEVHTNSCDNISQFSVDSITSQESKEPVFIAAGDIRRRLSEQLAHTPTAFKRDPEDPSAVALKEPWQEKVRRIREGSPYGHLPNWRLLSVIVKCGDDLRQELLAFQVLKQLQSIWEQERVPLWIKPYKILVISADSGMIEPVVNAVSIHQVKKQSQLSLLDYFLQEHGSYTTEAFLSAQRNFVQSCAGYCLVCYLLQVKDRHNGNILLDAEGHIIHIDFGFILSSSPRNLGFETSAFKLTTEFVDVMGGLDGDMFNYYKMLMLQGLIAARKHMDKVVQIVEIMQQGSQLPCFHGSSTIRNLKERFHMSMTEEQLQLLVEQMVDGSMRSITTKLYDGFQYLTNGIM
UniProt Q15118, whole entry, looked up: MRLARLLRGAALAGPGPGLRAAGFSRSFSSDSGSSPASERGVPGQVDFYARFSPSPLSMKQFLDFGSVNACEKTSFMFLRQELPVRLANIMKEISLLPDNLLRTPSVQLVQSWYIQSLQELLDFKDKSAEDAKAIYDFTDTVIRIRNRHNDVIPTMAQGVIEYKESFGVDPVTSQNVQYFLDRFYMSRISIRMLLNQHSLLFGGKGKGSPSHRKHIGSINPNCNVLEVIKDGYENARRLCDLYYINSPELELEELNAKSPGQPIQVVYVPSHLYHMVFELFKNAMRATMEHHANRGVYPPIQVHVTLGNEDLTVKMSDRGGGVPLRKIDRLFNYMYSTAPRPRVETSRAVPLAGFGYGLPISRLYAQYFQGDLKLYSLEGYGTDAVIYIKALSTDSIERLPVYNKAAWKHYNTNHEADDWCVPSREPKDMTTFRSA
UniProt P53350, whole entry: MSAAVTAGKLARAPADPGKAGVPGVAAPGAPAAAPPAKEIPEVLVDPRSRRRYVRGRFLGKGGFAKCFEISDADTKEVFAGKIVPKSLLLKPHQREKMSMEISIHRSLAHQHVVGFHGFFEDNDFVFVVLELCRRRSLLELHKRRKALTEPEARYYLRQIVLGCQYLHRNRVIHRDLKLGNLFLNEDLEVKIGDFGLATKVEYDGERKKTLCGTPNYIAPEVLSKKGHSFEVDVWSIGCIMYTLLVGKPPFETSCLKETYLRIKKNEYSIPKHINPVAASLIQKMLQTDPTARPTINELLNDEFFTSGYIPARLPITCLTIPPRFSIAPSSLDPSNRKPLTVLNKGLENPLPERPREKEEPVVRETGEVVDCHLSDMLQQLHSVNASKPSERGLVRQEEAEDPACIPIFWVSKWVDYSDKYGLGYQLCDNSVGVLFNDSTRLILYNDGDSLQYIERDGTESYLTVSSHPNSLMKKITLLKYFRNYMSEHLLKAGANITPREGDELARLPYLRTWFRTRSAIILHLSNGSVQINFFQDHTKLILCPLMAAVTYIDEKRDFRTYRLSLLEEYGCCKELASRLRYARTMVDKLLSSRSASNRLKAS
UniProt Q9Y6E0: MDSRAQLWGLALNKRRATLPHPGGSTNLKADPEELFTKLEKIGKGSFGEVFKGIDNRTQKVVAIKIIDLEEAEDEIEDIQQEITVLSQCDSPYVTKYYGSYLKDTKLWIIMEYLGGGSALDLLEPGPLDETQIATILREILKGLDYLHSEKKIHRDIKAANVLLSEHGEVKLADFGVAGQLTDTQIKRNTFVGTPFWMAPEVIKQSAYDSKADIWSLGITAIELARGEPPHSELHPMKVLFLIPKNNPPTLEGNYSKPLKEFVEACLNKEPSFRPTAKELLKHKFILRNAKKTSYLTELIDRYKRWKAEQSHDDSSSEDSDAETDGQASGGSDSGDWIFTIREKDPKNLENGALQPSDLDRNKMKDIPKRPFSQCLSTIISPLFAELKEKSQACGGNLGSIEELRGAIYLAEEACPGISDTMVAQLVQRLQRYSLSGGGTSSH

Compound: CC(C)N(CCC(=O)c1ccc2ccccc2c1)Cc1ccccc1
Assay: number of time points (of 5) at which kinase-Nluc abundance scored as decreased, DMSO-normalised (count); higher = more persistent destabilization
Conditions: 10 µM; K562; 2-18 h

Row | Target | number of time points
1 | FGR (UniProt P09769) | 0
2 | PTK2B (UniProt Q14289) | 0
3 | LMTK2 (UniProt Q8IWU2) | 0
4 | CSK (UniProt P41240) | 0
5 | STK38 (UniProt Q15208) | 0
6 | ZAP70 (UniProt P43403) | 0
7 | SYK (UniProt P43405) | 0
8 | RIPK2 (UniProt O43353) | 0
9 | SPHK1 (UniProt Q9NYA1) | 0
10 | ERBB3 (UniProt P21860) | 0
11 | PAK4 (UniProt O96013) | 0
12 | NTRK2 (UniProt Q16620) | 0
13 | GSK3A (UniProt P49840) | 0
14 | MAPK4 (UniProt P31152) | 0
15 | TYK2 (UniProt P29597) | 0
16 | EPHA2 (UniProt P29317) | 0

Row | Target | number of time points
17 | DYRK2 (UniProt Q92630) | 0
18 | ARAF (UniProt P10398) | 0
19 | ROR2 (UniProt Q01974) | 0
20 | PRKAA1 (UniProt Q13131) | 0
21 | INSRR (UniProt P14616) | 0
22 | BRAF (UniProt P15056) | 0
23 | PIK4CB (UniProt Q9UBF8) | 0
24 | NTRK3 (UniProt Q16288) | 0
25 | CSNK1D (UniProt P48730) | 0
26 | PDK1 (UniProt Q15118) | 0
27 | CDK3 (UniProt Q00526) | 0
28 | MAP2K2 (UniProt P36507) | 0
29 | FLT3 (UniProt P36888) | 0
30 | AURKC (UniProt Q9UQB9) | 0
31 | PLK1 (UniProt P53350) | 0
32 | STK24 (UniProt Q9Y6E0) | 0

Compound: CC(C)[C@@](C)(O)[C@@H]1CN(c2nc(-c3[nH]nc4ncccc34)c(F)cc2Cl)CCN1
Assay: as above
Conditions: 10 µM; K562; 2-18 h

Row | Target | number of time points
33 | FGR (UniProt P09769) | 0
34 | PTK2B (UniProt Q14289) | 0
35 | LMTK2 (UniProt Q8IWU2) | 0
36 | CSK (UniProt P41240) | 0
37 | STK38 (UniProt Q15208) | 1
38 | ZAP70 (UniProt P43403) | 0
39 | SYK (UniProt P43405) | 0
40 | RIPK2 (UniProt O43353) | 0
41 | SPHK1 (UniProt Q9NYA1) | 0
42 | ERBB3 (UniProt P21860) | 0
43 | PAK4 (UniProt O96013) | 0
44 | NTRK2 (UniProt Q16620) | 0
45 | GSK3A (UniProt P49840) | 0
46 | MAPK4 (UniProt P31152) | 0
47 | TYK2 (UniProt P29597) | 3
48 | EPHA2 (UniProt P29317) | 0

Row | Target | number of time points
49 | DYRK2 (UniProt Q92630) | 0
50 | ARAF (UniProt P10398) | 0
51 | ROR2 (UniProt Q01974) | 0
52 | PRKAA1 (UniProt Q13131) | 0
53 | INSRR (UniProt P14616) | 0
54 | BRAF (UniProt P15056) | 0
55 | PIK4CB (UniProt Q9UBF8) | 0
56 | NTRK3 (UniProt Q16288) | 2
57 | CSNK1D (UniProt P48730) | 0
58 | PDK1 (UniProt Q15118) | 0
59 | CDK3 (UniProt Q00526) | 0
60 | MAP2K2 (UniProt P36507) | 0
61 | FLT3 (UniProt P36888) | 0
62 | AURKC (UniProt Q9UQB9) | 0
63 | PLK1 (UniProt P53350) | 0
64 | STK24 (UniProt Q9Y6E0) | 0

Compound: CC(C)n1nc(-c2cc3cc(O)ccc3[nH]2)c2c(N)ncnc21 [Torkinib]
Assay: as above
Conditions: 2.5 µM; K562; 2-18 h

Row | Target | number of time points
65 | FGR (UniProt P09769) | 0
66 | PTK2B (UniProt Q14289) | 0
67 | LMTK2 (UniProt Q8IWU2) | 0
68 | CSK (UniProt P41240) | 0
69 | STK38 (UniProt Q15208) | 0
70 | ZAP70 (UniProt P43403) | 0
71 | SYK (UniProt P43405) | 0
72 | RIPK2 (UniProt O43353) | 3
73 | SPHK1 (UniProt Q9NYA1) | 0
74 | ERBB3 (UniProt P21860) | 4
75 | PAK4 (UniProt O96013) | 0
76 | GSK3A (UniProt P49840) | 0
77 | MAPK4 (UniProt P31152) | 0
78 | TYK2 (UniProt P29597) | 1
79 | EPHA2 (UniProt P29317) | 0
80 | DYRK2 (UniProt Q92630) | 0

Row | Target | number of time points
81 | ARAF (UniProt P10398) | 0
82 | ROR2 (UniProt Q01974) | 0
83 | PRKAA1 (UniProt Q13131) | 0
84 | INSRR (UniProt P14616) | 0
85 | BRAF (UniProt P15056) | 0
86 | PIK4CB (UniProt Q9UBF8) | 0
87 | NTRK3 (UniProt Q16288) | 0
88 | CSNK1D (UniProt P48730) | 0
89 | PDK1 (UniProt Q15118) | 0
90 | CDK3 (UniProt Q00526) | 0
91 | MAP2K2 (UniProt P36507) | 0
92 | FLT3 (UniProt P36888) | 0
93 | AURKC (UniProt Q9UQB9) | 0
94 | PLK1 (UniProt P53350) | 0
95 | STK24 (UniProt Q9Y6E0) | 0
